About 7,700 (2.3%) of roughly 330,000 compounds were called active. This list was built around the results that the source calls inconclusive (neither active nor inactive); the mix of calls is not that of the screen. The call rests on the fitted dose curve; in most records, active means well fitted inhibition curve with a large enough effect; inconclusive means small, poorly fitted or top-dose-only effect, or effect the other way; inactive means flat fitted curve, though single readings scatter. Potencies beside an inconclusive call are fits to weak or partial responses and may not hold up.
Experiment: qHTS screen for small molecules that inhibit ELG1-dependent DNA repair in human embryonic kidney (HEK293T) cells expressing luciferase-tagged ELG1; further: nearly all actives have a fitted effect of over 55% in size
Conditions: HEK293T ELG1-luciferase reporter, luminescence, 16 h, DNA damage induced by 5-fluorouridine; series mostly up to 46.1 µM
How it was run: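 Quantitative HTS, concentration-response format. 2,000 cells/well co-treated with 5-fluorouridine and compound, 16 hr in 5% CO2 at 37 °C; ONE-Glo luminescence read after 30 min.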
In the case of `CC(C)Oc1ccc(C(CC(=O)NCc2ccco2)c2ccccc2)cc1` (configuration not stated), the Potency is reported as inconclusive: 29.1 µM [inhibitor, partial curve, poor fit].
For `O=C(COC(=O)CCc1nc2ccccc2s1)Nc1nc(-c2ccccc2)cs1`, the Potency was inconclusive: 16.4 µM [activator, partial curve].
For `CSCC(=O)N1CCC(n2nccc2NC(=O)c2ccc3c(c2)OCO3)CC1`, the Potency was inconclusive: 20.6 µM [activator, partial curve].
For `Cc1ccc(COCCN2CCN(S(=O)(=O)c3ccccc3)CCC2=O)cc1`, the Potency was “inactive”.
In the case of `Cn1nnnc1SCC(=O)NCc1cccs1`, the Potency is reported as inconclusive: 20.6 µM [activator, single point].
For `O=C(NCCCN1CCN(Cc2ccccc2)CC1)C1CCN(c2nnc(-n3cccc3)s2)CC1`, the Potency was active: 7.08 µM.
In the case of `COc1ccc(NC(=O)Nc2cc3oc4ccccc4c3cc2OC)cc1`, the Potency is reported as inconclusive: 20.6 µM [activator, partial curve, poor fit].
With `COCC(=O)Nc1nc2n(n1)C(c1ccccc1)CC(c1ccc(OC)cc1)N2` (configuration not stated) the Potency was “inactive”.
For `CCN1C(=O)[C@H]2[C@H]3[C@H](O)[C@H](O)C/C(=N\OC[C@@H](C)[C@H](OCc4ccccc4)C(C)C)[C@@H]3CC[C@H]2C1=O`, the Potency was “inactive”.
For `O=C(NCc1ccco1)c1ccc2ccccc2c1`, the Potency was inconclusive: 11.6 µM [activator, partial curve].
For `COc1ccc(OC)c(-c2csc(NC(=O)CSc3ccc([N+](=O)[O-])cc3)n2)c1`, the Potency was inconclusive: 25.9 µM [inhibitor, single point].
With `Cc1[nH]c(C)c2c(=O)n(-c3ccccc3)ncc12` the Potency was inconclusive: 20.6 µM [activator, partial curve].
In the case of `CC(CCc1ccccc1)NC(=O)c1cnc(Cl)c(Cl)c1` (configuration not stated), the Potency is reported as “inactive”.
For `O=C(CSc1nnc(-c2c[nH]c3ccccc23)o1)N(Cc1ccccc1)c1ccc(F)cc1`, the Potency was active: 20.6 µM.
With `COc1cccc(/C=C2\SC(=S)N(CCC(=O)NCCc3ccc(O)cc3)C2=O)c1` the Potency was “inactive”.
In the case of `COc1ccc(OC)c(Nc2cc(C(=O)NCCCN3CCOCC3)c3ccccc3n2)c1`, the Potency is reported as inconclusive: 20.6 µM [inhibitor, partial curve].
For `CCc1nc2sc3c(c2c(=O)n1NC(=O)CCl)CCCC3`, the Potency was “inactive”.
For `Cc1cccc(-n2ncc(Cl)c(Cl)c2=O)c1`, the Potency was inconclusive: 23.1 µM [inhibitor, single point].
With `CCN(CCO)c1nc(SC)nc2c1sc1nc(-c3ccco3)c3c(c12)CCC3` the Potency was inconclusive: 23.1 µM [inhibitor, single point].
In the case of `CCn1cc(C(=O)Nc2ccc3c(c2)OCCO3)c2cc(OC)c(OC)cc2c1=O`, the Potency is reported as active: 5.8 µM.
In the case of `O=C(c1ccco1)N1CCN(Cc2cc(=O)c(OCc3c(F)cccc3Cl)co2)CC1`, the Potency is reported as “inactive”.
In the case of `COc1ccc(CCNC(=O)c2cn3ccc(C)cc3n2)cc1OC`, the Potency is reported as “inactive”.
For `COCCSc1ccccc1C(=O)Nc1ccc(Cl)cc1`, the Potency was “inactive”.
With `CCN(CC)C(=O)CSc1nc2c(sc(=S)n2-c2ccccc2)c(=O)n1-c1ccc(OC)c(OC)c1` the Potency was inconclusive: 11.6 µM [inhibitor, partial curve].
With `COc1ccc(Nc2nc3ccc(C)cn3c(=O)c2/C=N/O)cc1` the Potency was inconclusive: 5.8 µM [inhibitor, partial curve].
In the case of `CN(C)S(=O)(=O)c1ccc(C(=O)NCC(=O)Nc2ccc(F)c(F)c2)cc1`, the Potency is reported as “inactive”.
For `CCOC(=O)C1NN=C(C(=O)c2ccccc2)C1c1ccc(OC)cc1` (configuration not stated), the Potency was “inactive”.
For `O=C(Cc1coc2ccc3ccccc3c12)Nc1nnc(C2CC2)s1`, the Potency was “inactive”.
For `CC1CCCCN1C(=O)CSc1nnc(-c2cccnc2)n1C1CCCCC1` (configuration not stated), the Potency was “inactive”.
For `CC[C@H](C)[C@@H](C(=O)NCCCCCCCCCCC(=O)N1CCNCC1)n1cc(CCCCN=C(N)N)nn1`, the Potency was “inactive”.
In the case of `Cc1cc(C)c(C#N)c(SCC(=O)CC(=O)OC(C)C)n1`, the Potency is reported as “inactive”.
In the case of `COc1ccc(Cn2c(-c3ccc(OC)cc3)n[nH]c2=S)cc1`, the Potency is reported as “inactive”.
In the case of `CCc1nc2ccc(C(=O)N3CCN(c4cc(C)ccc4C)CC3)cc2nc1CC`, the Potency is reported as inconclusive: 32.6 µM [inhibitor, partial curve, poor fit].
With `CC(=O)NCCNC(=O)c1ccc(Sc2ccccc2)c([N+](=O)[O-])c1` the Potency was “inactive”.
For `CC1CCN(C(=O)c2ccc(S(=O)(=O)Cc3cccc(F)c3)c([N+](=O)[O-])c2)CC1`, the Potency was inconclusive: 8.2 µM [inhibitor, partial curve].
With `COc1ccc2c(c1)C(c1ccccc1)=NNC(c1ccco1)=N2` the Potency was inconclusive: 29.1 µM [inhibitor, single point].
In the case of `Cc1ccccc1N1CC(=O)Nc2c(oc3nc(-c4ccccc4)cc(C)c23)C1=O`, the Potency is reported as inconclusive: 23.1 µM [inhibitor, partial curve].
With `Cc1onc(-c2ccccc2)c1CNC(=O)Nc1cccc(Cl)c1` the Potency was inconclusive: 23.1 µM [inhibitor, single point].
In the case of `Cc1nc2c(-c3ccc(F)cc3)c(C)nn2c(N2CCOCC2)c1C`, the Potency is reported as inconclusive: 29.1 µM [inhibitor, single point].
With `CN(c1ccc(C(=O)NCCSC(C)(C)C)cc1)S(=O)(=O)c1ccccc1` the Potency was inconclusive: 0.58 µM [activator, partial curve, poor fit].
For `CCOC(=O)CSc1nnc(CSc2nc3ccccc3c(=O)[nH]2)n1-c1ccccc1`, the Potency was “inactive”.
With `O=C(/C=C/c1cccnc1)c1ccc(F)c(F)c1` the Potency was inconclusive: 29.1 µM [inhibitor, single point].
With `O=C(Nc1nc2ccccc2s1)c1ccc(OCC2CCCO2)cc1` (configuration not stated) the Potency was inconclusive: 0.731 µM [activator, full curve].
In the case of `Nc1ncnc(Nc2ccccn2)c1[N+](=O)[O-]`, the Potency is reported as inconclusive: 23.1 µM [inhibitor, single point].
In the case of `O=C(C1CCCCC1)N1CCN(c2ccnc3cc(Cl)ccc23)CC1`, the Potency is reported as active: 11.6 µM.
In the case of `NS(=O)(=O)c1ccc(CCNC(=O)CSc2ccc(Cl)cc2Cl)cc1`, the Potency is reported as “inactive”.
With `COCCn1c(SCC(=O)NC(=O)NCc2ccccc2)nc2ccccc2c1=O` the Potency was “inactive”.
For `Cc1ccc(C(=O)Nc2ncc(C)s2)s1`, the Potency was inconclusive: 0.92 µM [activator, partial curve].
For `CS(=O)(=O)c1ccc2nc(NC(=O)c3cc4ccccc4o3)sc2c1`, the Potency was inconclusive: 14.6 µM [activator, partial curve].
For `CC(C)CCNC(=O)c1ccc(CS(=O)(=O)Cc2ccccc2F)o1`, the Potency was inconclusive: 20.6 µM [inhibitor, partial curve, poor fit].
With `CC(C)(C)c1ccc(OCC(=O)N(c2ccccn2)C2CCCCC2)cc1` the Potency was “inactive”.
With `N#Cc1cccc(NC(=O)CNc2cccc(S(=O)(=O)N3CCCCC3)c2)c1` the Potency was inconclusive: 5.17 µM [inhibitor, single point].
In the case of `N/C(=C\C(=O)c1cc(Cl)ccc1O)C(Cl)(Cl)Cl`, the Potency is reported as inconclusive: 3.26 µM [inhibitor, single point].
With `O=C(NCCc1ccccc1)c1noc2c1CCc1ccccc1-2` the Potency was inconclusive: 16.4 µM [activator, partial curve].
In the case of `Cc1cc(=O)oc2cc(OCC(=O)N3CCN(c4ccccc4)CC3)c(Cl)cc12`, the Potency is reported as “inactive”.
With `COc1ccc(-c2noc(CCC(=O)N3CCN(c4cccc(OC)c4)CC3)n2)cc1` the Potency was active: 25.9 µM.
In the case of `O=C(N/N=C/C=C/c1ccc([N+](=O)[O-])cc1)C1COc2ccccc2O1` (configuration not stated), the Potency is reported as inconclusive: 20.6 µM [inhibitor, single point].
For `Cc1cc2oc(=O)cc(CN3CCCCC3C)c2cc1C(C)C` (configuration not stated), the Potency was “inactive”.
For `COCC(=O)Nc1nc(-c2ccccc2)ns1`, the Potency was inconclusive: 16.4 µM [activator, single point].
With `CCCSc1ncc(Cl)c(C(=O)Nc2ccc(S(=O)(=O)N3CC(C)OC(C)C3)cc2)n1` (configuration not stated) the Potency was inconclusive: 29.1 µM [inhibitor, single point].
With `CCOc1ccccc1NC1=C(Cl)C(=O)N(Cc2ccccc2)C1=O` the Potency was “inactive”.
In the case of `COc1cccc(NC(=O)CN(C)C(=O)c2ccc(Cl)c(S(=O)(=O)N3CCCCCC3)c2)c1`, the Potency is reported as inconclusive: 14.6 µM [inhibitor, partial curve, poor fit].
For `CSc1ncc(Cl)c(C(=O)C(C#N)c2nc3c(C)cc(C)cc3c(=O)[nH]2)n1` (configuration not stated), the Potency was inconclusive: 11.6 µM [inhibitor, partial curve, poor fit].
With `CCc1ccc(NC(=O)c2ccc3ncsc3c2)cc1` the Potency was inconclusive: 10 µM [activator, partial curve].
In the case of `N#Cc1cccnc1N1CCN(C(=O)c2ccco2)CC1`, the Potency is reported as inconclusive: 23.1 µM [activator, single point].
With `COC(=O)c1ccc(N/C(C)=C/C(=O)c2ccc(C)o2)cc1` the Potency was inconclusive: 14.6 µM [activator, partial curve, poor fit].
With `CCOC(=O)c1c(O)c2ccccc2oc1=O` the Potency was “inactive”.
For `COc1nnc(-c2ccc(C)c(S(=O)(=O)NCC3CCCO3)c2)c2ccccc12` (configuration not stated), the Potency was inconclusive: 18.3 µM [inhibitor, partial curve, poor fit].
With `COc1ccc(C(=O)NCC(=O)N2CCN(C(=O)c3ccco3)CC2)cc1[N+](=O)[O-]` the Potency was inconclusive: 32.6 µM [inhibitor, single point].
In the case of `Cc1cccc(NCC(=O)N/N=C/c2ccc(Br)cc2)c1`, the Potency is reported as “inactive”.
In the case of `COc1cccc(-n2c(CN3CCN(c4ccccc4)CC3)nc3ccc([N+](=O)[O-])cc3c2=O)c1`, the Potency is reported as active: 18.4 µM.
In the case of `COc1cc(COc2ccc3c(C)c(CCC(=O)O)c(=O)oc3c2)cc(OC)c1OC`, the Potency is reported as inconclusive: 20.6 µM [activator, single point].

Source: PubChem BioAssay AID504467 (National Center for Advancing Translational Sciences (NCATS), 2011)
Potency means the concentration at half of the fitted maximal effect.
